Data published in patent US20070128672A1.
Results are given in words; binding and its absence hold for the method and conditions named. Some binding calls cover weakened binding; strength is not graded here.

Target: mutant murine p53 from the mouse tumour cell line MethA (mouse) (UniProt P02340)
Assay: immunoprecipitation from MethA lysate, immunoblot (FIG. 8 legend)

B1: whole anti-p53 antibody from CHO clone C4B4 (antibody, V domains shown)
VH: VQLLEQSGAEVKRPGASVTISCQASRQDFSGQYIHWVRQAPGQGFEWMGIINPSGGSANYAPKFKGRLTMSRDSSTDTVYMTLTSLTSEDTAVYYCLLQALKHWGQGTLVAVSS
VL: AAELTQSPDSLAVALGERATINCKSSQSVLYSLNNKNYLAWYQQKPGQPPKLLIHWASTRESGVPDRFSGSGSETDFTLTISSLQAEDVAVYYCQQYYTTPYTFGQGTKLEIK
B1 was tested, and the binding was “binds”.
